Results reported in patent US20230312680A1.

B1: … (SEQ ID No 49) (peptide)
peptide: LPRLKAFMI
B2: DMKYKNRV (SEQ ID No 50) (peptide)
peptide: DMKYKNRV
B3: … (SEQ ID No 51) (peptide)
peptide: SLRLKNVQL
B4: MAAVKQAL (SEQ ID No 150) (peptide)
peptide: MAAVKQAL
B5: … (SEQ ID No 151) (peptide)
peptide: HLLLKVLAF
B6: … (SEQ ID No 152) (peptide)
peptide: MGSARVAEL
B7: … (SEQ ID No 153) (peptide)
peptide: NAMLRKVAV
B8: … (SEQ ID No 154) (peptide)
peptide: MLRKIAVAA
B9: HVKEKFLL (SEQ ID No 156) (peptide)
peptide: HVKEKFLL
B10: … (SEQ ID No 157) (peptide)
peptide: EAMKRLSYI
B11: LPKLAGLL (SEQ ID No 158) (peptide)
peptide: LPKLAGLL
B12: … (SEQ ID No 159) (peptide)
peptide: VLKHKLDEL
B13: YPKARLAF (SEQ ID No 160) (peptide)
peptide: YPKARLAF
B14: … (SEQ ID No 161) (peptide)
peptide: ALKTTTTAL
B15: QAKTHSTL (SEQ ID No 162) (peptide)
peptide: QAKTHSTL
B16: QGLLRPVF (SEQ ID No 163) (peptide)
peptide: QGLLRPVF
B17: … (SEQ ID No 164) (peptide)
peptide: SIKTKSAEM
B18: … (SEQ ID No 166) (peptide)
peptide: TPKLRETSI
B19: … (SEQ ID No 167) (peptide)
peptide: TSHERLTTL
B20: … (SEQ ID No 169) (peptide)
peptide: TSMPRSSAM
B21: … (SEQ ID No 170) (peptide)
peptide: YLLEKSRVI
B22: FAFRKEAL (SEQ ID No 171) (peptide)
peptide: FAFRKEAL
B23: … (SEQ ID No 172) (peptide)
peptide: KLKERNREL
B24: MYKMKKPI (SEQ ID No 394) (peptide)
peptide: MYKMKKPI
B25: … (SEQ ID No 10) (peptide)
peptide: RYSDSVGRVSF
B26: … (SEQ ID No 11) (peptide)
peptide: SYSDLHYGF
B27: … (SEQ ID No 12) (peptide)
peptide: KYEKIFEML
B28: … (SEQ ID No 13) (peptide)
peptide: VYTFLSSTL
B29: … (SEQ ID No 14) (peptide)
peptide: FYFPTPTVL
B30: … (SEQ ID No 15) (peptide)
peptide: VYHDDKQPTF
B31: … (SEQ ID No 16) (peptide)
peptide: IYSPQFSRL
B32: … (SEQ ID No 17) (peptide)
peptide: RFTTMLSTF
B33: … (SEQ ID No 18) (peptide)
peptide: KYPVHIYRL
B34: … (SEQ ID No 19) (peptide)
peptide: KYVKVFHQF
B35: … (SEQ ID No 76) (peptide)
peptide: KYVAELSLL
B36: RYGPVFTV (SEQ ID No 77) (peptide)
peptide: RYGPVFTV
B37: … (SEQ ID No 78) (peptide)
peptide: SFAPRSAVF
B38: … (SEQ ID No 79) (peptide)
peptide: SYNEHWNYL
B39: … (SEQ ID No 80) (peptide)
peptide: TAYMVSVAAF
B40: … (SEQ ID No 81) (peptide)
peptide: VYNHTTRPL
B41: … (SEQ ID No 82) (peptide)
peptide: SYFRGFTLI
B42: … (SEQ ID No 246) (peptide)
peptide: RYLAVVHAVF
B43: … (SEQ ID No 249) (peptide)
peptide: VYTPTLGTL
B44: … (SEQ ID No 252) (peptide)
peptide: LYQPRASEM
B45: … (SEQ ID No 255) (peptide)
peptide: VFVSFSSLF
B46: … (SEQ ID No 31) (peptide)
peptide: LLDEGAMLLY
B47: … (SEQ ID No 112) (peptide)
peptide: TVTGAEQIQY
B48: … (SEQ ID No 113) (peptide)
peptide: QLDSNRLTY
B49: … (SEQ ID No 114) (peptide)
peptide: VMEQSAGIMY
B50: … (SEQ ID No 115) (peptide)
peptide: FVDNQYWRY
B51: … (SEQ ID No 116) (peptide)
peptide: VLLDEGAMLLY
B52: … (SEQ ID No 288) (peptide)
peptide: SPVTSVHGGTY
B53: … (SEQ ID No 289) (peptide)
peptide: RWEKTDLTY
B54: … (SEQ ID No 290) (peptide)
peptide: DMDEEIEAEY
B55: … (SEQ ID No 291) (peptide)
peptide: ETIRSVGYY
B56: … (SEQ ID No 292) (peptide)
peptide: NVTMKVVSVLY

Target: HLA-B*08:01 (human)
Experiment: b2m dissociation at 37 C; grade of mean half-life

binding, binds:
B1
B2
B3
B4
B5
B6
B7
B8
B9
B10
B11
B12
B13
B14
B15
B16
B17
B18
B19
B20
B21
B22
B23
B24

Target: HLA-A*24:02 (human)
Experiment: UV-ligand exchange, b2m ELISA; grade of exchange yield

binding, binds:
B25
B26
B27
B28
B29
B30
B31
B32
B33
B34
B35
B36
B37
B38
B39
B40
B41
B42
B43
B44
B45

Target: HLA-A*01:01 (human)
Experiment: as above

binding, binds:
B46
B47
B48
B49
B50
B51
B52
B53
B54
B55
B56

These are yes or no findings as the source states them, for the method shown. Binding can be weak; no strength is given. Ends that are not written are not given here.
